Reference: the supplement of paper PMC10849652
Some of the results follow.

Amino acid sequences for entries named in this document (tags omitted). A change or cut given only in a name is not applied to a line headed by its entry.
UniProt P22307: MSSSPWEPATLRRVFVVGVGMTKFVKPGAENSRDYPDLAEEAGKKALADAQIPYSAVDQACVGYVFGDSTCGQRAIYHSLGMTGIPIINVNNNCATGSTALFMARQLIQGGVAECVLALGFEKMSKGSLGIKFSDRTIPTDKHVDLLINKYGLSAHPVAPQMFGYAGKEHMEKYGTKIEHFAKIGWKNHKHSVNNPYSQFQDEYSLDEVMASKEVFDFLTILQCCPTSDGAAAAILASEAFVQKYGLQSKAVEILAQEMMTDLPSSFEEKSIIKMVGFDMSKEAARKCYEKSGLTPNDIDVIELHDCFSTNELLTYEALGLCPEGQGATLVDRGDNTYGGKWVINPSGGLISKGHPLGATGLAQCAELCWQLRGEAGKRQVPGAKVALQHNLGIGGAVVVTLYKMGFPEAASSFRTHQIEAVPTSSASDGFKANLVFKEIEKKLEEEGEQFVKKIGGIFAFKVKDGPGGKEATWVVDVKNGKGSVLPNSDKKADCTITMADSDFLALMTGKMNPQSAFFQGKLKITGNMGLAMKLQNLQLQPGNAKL
UniProt P57060: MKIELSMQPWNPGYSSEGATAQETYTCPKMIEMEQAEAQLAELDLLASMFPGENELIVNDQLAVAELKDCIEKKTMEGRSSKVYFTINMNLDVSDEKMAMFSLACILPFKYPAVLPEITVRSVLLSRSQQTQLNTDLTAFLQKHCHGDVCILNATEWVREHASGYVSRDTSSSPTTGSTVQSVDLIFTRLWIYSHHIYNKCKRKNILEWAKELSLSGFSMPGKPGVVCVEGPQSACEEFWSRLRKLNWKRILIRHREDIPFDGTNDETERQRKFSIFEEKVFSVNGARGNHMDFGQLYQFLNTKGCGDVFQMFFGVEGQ
UniProt Q14684: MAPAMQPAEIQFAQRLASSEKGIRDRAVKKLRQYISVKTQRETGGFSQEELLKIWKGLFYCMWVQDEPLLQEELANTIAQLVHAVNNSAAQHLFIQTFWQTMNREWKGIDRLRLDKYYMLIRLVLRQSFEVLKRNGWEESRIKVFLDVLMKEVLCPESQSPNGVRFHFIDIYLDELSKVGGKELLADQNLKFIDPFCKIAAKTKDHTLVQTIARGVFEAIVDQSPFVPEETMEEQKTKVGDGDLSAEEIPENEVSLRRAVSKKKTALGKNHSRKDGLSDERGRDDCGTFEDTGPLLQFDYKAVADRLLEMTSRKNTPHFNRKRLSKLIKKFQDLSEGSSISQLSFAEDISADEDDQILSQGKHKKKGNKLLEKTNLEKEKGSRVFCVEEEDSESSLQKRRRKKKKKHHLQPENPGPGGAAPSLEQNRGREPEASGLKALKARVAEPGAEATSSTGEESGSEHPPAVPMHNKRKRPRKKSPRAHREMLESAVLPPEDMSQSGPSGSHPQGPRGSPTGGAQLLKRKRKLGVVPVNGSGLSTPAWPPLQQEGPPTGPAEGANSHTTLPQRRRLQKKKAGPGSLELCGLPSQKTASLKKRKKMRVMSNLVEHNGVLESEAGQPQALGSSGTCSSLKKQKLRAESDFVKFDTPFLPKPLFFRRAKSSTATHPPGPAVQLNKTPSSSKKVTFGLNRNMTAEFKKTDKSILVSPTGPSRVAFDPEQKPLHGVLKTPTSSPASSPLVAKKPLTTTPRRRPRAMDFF
UniProt Q6PCB5: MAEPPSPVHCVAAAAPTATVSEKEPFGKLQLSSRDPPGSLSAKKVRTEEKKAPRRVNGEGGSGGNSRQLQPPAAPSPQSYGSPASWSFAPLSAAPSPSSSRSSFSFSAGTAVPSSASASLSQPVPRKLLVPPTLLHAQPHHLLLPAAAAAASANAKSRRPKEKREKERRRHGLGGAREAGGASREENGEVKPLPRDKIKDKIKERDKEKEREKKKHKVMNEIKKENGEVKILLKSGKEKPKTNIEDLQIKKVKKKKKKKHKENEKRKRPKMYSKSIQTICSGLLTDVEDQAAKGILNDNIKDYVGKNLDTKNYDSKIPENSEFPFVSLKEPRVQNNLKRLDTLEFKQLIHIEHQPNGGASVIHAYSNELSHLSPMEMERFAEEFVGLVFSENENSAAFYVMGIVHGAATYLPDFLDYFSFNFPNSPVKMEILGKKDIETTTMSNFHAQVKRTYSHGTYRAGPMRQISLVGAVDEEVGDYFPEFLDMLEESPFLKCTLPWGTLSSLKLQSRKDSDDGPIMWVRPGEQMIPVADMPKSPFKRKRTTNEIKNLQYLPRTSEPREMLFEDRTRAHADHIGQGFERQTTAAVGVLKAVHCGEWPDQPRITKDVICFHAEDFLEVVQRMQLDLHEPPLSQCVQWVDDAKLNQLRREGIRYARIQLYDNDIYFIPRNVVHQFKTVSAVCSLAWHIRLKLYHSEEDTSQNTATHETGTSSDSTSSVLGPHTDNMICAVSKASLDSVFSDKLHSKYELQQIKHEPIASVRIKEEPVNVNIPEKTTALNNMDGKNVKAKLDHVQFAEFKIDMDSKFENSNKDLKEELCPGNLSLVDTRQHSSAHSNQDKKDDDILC
UniProt O75298: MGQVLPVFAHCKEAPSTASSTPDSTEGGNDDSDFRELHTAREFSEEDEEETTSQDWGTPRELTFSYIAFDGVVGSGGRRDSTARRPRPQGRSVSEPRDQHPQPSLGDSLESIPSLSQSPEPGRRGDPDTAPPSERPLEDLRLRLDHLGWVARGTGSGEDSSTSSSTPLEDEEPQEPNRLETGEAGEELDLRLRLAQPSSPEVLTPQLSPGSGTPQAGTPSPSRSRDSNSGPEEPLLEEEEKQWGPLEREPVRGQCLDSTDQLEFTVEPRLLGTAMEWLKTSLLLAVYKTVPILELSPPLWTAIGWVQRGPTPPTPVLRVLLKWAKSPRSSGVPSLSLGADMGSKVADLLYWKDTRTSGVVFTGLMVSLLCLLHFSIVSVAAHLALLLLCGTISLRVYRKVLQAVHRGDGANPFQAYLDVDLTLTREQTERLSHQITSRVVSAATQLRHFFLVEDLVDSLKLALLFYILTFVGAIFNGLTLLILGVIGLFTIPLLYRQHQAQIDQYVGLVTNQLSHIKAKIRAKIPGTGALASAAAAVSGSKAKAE
UniProt Q9NQC3: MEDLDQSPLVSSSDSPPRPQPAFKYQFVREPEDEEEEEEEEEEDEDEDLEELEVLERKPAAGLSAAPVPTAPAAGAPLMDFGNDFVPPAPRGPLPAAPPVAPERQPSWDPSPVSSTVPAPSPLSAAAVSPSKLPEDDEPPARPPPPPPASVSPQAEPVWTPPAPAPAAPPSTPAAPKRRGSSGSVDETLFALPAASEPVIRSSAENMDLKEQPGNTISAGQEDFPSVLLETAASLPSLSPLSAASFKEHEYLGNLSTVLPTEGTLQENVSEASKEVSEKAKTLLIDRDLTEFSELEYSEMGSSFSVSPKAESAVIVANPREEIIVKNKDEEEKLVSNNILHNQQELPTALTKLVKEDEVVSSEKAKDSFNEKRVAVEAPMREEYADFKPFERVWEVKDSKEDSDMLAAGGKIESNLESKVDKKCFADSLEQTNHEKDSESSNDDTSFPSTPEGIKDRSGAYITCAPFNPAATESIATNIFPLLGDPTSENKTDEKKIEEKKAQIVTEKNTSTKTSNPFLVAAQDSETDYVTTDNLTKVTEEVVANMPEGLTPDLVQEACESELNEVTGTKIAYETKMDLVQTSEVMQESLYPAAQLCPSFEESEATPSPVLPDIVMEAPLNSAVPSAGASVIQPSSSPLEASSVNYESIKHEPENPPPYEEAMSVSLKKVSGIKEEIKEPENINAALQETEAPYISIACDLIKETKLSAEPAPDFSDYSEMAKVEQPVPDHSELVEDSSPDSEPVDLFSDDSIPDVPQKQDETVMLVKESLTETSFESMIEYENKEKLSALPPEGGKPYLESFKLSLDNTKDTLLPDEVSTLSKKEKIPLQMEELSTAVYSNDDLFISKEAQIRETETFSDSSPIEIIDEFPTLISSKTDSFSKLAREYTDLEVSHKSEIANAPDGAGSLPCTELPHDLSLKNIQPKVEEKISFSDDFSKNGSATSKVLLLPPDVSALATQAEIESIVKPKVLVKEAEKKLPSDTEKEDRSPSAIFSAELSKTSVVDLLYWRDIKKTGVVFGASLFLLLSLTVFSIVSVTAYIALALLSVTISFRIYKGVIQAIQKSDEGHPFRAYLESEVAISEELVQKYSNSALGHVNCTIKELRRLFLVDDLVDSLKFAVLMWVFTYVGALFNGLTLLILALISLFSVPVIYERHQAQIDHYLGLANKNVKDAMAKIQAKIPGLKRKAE
UniProt O75056, whole entry, looked up: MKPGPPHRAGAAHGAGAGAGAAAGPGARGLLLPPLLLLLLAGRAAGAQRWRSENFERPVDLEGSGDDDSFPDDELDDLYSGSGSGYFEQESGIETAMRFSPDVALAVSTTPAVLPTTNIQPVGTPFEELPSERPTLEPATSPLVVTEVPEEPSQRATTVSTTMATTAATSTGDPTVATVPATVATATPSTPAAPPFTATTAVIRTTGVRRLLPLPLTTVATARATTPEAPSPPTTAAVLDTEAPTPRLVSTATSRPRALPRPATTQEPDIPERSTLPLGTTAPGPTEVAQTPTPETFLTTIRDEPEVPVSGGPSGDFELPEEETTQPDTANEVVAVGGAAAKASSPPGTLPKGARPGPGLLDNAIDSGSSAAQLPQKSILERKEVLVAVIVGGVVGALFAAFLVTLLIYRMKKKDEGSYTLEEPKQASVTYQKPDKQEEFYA
UniProt Q96T51: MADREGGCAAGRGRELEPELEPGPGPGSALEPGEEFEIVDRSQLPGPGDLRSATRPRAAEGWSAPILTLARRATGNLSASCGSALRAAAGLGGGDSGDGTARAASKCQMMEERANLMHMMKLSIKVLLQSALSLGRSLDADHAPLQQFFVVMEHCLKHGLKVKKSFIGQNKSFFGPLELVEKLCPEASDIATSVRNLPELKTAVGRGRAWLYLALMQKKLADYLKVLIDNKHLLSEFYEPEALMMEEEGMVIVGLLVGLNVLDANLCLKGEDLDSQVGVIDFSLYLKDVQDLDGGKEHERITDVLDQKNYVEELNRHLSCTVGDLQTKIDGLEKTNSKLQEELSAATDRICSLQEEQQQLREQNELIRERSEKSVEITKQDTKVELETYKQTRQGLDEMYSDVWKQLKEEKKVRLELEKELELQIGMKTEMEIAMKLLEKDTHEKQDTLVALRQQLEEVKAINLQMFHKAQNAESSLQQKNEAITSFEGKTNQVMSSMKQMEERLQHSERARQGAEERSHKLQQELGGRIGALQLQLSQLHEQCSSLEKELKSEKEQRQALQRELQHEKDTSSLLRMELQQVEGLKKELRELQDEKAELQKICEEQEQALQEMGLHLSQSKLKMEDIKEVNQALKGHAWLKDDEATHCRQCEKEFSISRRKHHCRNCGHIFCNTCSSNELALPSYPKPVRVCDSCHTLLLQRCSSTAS
UniProt Q86SQ7: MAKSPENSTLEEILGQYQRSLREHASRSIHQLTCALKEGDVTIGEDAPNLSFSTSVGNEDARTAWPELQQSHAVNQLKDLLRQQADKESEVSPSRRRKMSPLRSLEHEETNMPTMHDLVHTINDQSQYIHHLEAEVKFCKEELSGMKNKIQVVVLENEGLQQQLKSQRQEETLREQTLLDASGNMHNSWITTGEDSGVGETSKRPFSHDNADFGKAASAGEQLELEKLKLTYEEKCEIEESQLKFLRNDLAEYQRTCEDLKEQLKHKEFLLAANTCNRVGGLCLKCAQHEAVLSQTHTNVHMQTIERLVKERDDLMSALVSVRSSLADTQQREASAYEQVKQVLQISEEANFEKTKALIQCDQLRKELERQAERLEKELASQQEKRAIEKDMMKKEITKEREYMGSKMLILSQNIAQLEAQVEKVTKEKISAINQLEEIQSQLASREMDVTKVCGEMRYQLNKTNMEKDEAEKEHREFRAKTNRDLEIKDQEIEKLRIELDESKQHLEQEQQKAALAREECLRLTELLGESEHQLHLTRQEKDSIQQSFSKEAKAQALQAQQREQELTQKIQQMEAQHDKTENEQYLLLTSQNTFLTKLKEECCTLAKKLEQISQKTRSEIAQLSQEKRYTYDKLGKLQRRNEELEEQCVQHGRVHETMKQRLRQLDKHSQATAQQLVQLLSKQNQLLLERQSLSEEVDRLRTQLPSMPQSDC
UniProt Q15050: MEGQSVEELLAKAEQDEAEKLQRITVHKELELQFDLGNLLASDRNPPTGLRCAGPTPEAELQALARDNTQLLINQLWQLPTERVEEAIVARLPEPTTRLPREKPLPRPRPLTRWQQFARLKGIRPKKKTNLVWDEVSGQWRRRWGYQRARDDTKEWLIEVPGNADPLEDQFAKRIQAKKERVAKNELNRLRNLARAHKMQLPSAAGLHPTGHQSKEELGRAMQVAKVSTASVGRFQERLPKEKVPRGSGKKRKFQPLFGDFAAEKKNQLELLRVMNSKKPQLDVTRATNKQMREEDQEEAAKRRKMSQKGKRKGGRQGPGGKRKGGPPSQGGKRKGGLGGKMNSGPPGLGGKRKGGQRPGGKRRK
UniProt P60903, whole entry, looked up: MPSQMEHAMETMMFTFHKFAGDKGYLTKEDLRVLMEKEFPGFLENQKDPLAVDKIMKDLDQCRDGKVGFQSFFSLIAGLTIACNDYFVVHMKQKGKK

Columns and labels:
Test in all cases: log2 fold change, soluble protein after heating vs DMSO (PISA); higher = thermal stabilisation; K562 cells, 10 uM, 30 min; active = over 0.2 and 3.5 SD of the protein, either way, in both replicates (recomputed)
[1] = compound: NC(=O)Nc1cc(-c2cccc(F)c2)sc1C(=O)N[C@H]1CCCNC1
In short: (§1)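 K562 cells at 2×10^6 cells/mL were given 10 μM compound for 30 min. Aliquots then went through 3 min of heating across 48°C-58°C, were pooled, and were extracted in PBS with 0.5% NP-40 at 4°C, and the supernatant after 21,000xg for 90 min was quantified by TMTpro 16plex LC-MS/MS with channel sums equalised. Thermal stability relative to control samples, from duplicates, is given as log2 fold change.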

[2] = compound: NC(=O)c1cnc(N[C@@H]2CCCC[C@@H]2N)nc1Nc1cccc(-n2nccn2)c1
In short: as §1

[3] = compound: NC1(c2ccc(-c3nc4ccn5c(=O)[nH]nc5c4cc3-c3ccccc3)cc2)CCC1
In short: as §1

[4] = compound: NCC(=O)Nc1ccc(-n2nc(C(F)(F)F)cc2-c2ccc3c(ccc4ccccc43)c2)cc1
In short: as §1

entinostat = compound: Nc1ccccc1NC(=O)c1ccc(CNC(=O)OCc2cccnc2)cc1 [entinostat]
In short: as §1

vorinostat = compound: O=C(CCCCCCC(=O)Nc1ccccc1)NO [vorinostat]
In short: as §1

citarinostat = compound: O=C(CCCCCCNC(=O)c1cnc(N(c2ccccc2)c2ccccc2Cl)nc1)NO [citarinostat]
In short: as §1

silmitasertib = compound: O=C(O)c1ccc2c(c1)nc(Nc1cccc(Cl)c1)c1ccncc12 [silmitasertib]
In short: as §1

[5] = compound: O=C1NC(=O)C(c2cnc3ccccn23)=C1c1cn2c3c(cc(F)cc13)CN(C(=O)N1CCCCC1)CC2
In short: as §1

[6] = compound: c1cc(OCCN2CCCCC2)cc(-c2n[nH]c3ccc(-c4nnc[nH]4)cc23)c1
In short: as §1

Measured: log2 fold change

SCARB1 isoform 2 (UniProt Q8WTV0)
inactive: [1] -0.05 | [2] -0.029 | [3] -0.034 | [4] -0.03 | entinostat -0.016 | vorinostat -0.026 | citarinostat 0.01 | silmitasertib 0.004 | [5] 0.064 | [6] -0.053

SCYL1 (UniProt Q96KG9)
inactive: [1] -0.005 | [2] 0.012 | [3] -0.113 | [4] -0.042 | entinostat 0.004 | vorinostat -0.008 | citarinostat 0.014 | silmitasertib -0.008 | [5] -0.057 | [6] -0.02

SCLY (UniProt Q96I15)
inactive: [1] 0.058 | [2] -0.01 | [3] 0.045 | [4] 0.013 | entinostat -0.016 | vorinostat -0.041 | citarinostat -0.018 | silmitasertib -0.017 | [5] 0 | [6] 0.167

SDHB, A0A087WWT1
inactive: [1] -0.135 | [2] -0.077 | [3] 0.102 | [4] 0.017 | entinostat -0.142 | vorinostat 0.018 | citarinostat -0.053 | silmitasertib -0.148 | [5] 0.085 | [6] 0.021

SCP2 (UniProt P22307)
inactive: [1] -0.048 | [2] -0.02 | [3] -0.022 | [4] -0.007 | entinostat -0.019 | vorinostat -0.009 | citarinostat 0.06 | silmitasertib -0.043 | [5] 0.028 | [6] 0.004

SCGB1D2 (UniProt O95969)
inactive: [1] 1.25 | [2] 0.359 | [3] -0.027 | [4] 0.159 | entinostat 0.463 | citarinostat -0.084 | silmitasertib -0.142 | [5] 0.395 | [6] 0.57

SDHAF4 (UniProt Q5VUM1)
inactive: [1] -0.016 | [2] 0.07 | [3] -0.111 | entinostat -0.021 | citarinostat 0.076 | silmitasertib 0.04 | [5] 0.005 | [6] 0.108

SEC24A (UniProt O95486)
inactive: [1] -0.015 | [2] 0 | [3] -0.108 | [4] -0.016 | entinostat 0.016 | vorinostat 0.078 | citarinostat 0 | silmitasertib 0.02 | [5] -0.092 | [6] -0.013

SEC24C (UniProt P53992)
inactive: [1] -0.067 | [2] -0.01 | [3] -0.099 | [4] -0.048 | entinostat 0.043 | vorinostat 0.043 | citarinostat 0.059 | silmitasertib 0.053 | [5] -0.058 | [6] 0.015

RWDD2B (UniProt P57060)
inactive: [1] -0.141 | [2] 0.257 | [4] -0.182 | entinostat 0.003 | vorinostat -0.226 | citarinostat 0.077 | [6] -0.053

RRP1B (UniProt Q14684)
inactive: [1] 0.003 | [3] -0.06 | [4] 0.207 | entinostat -0.12 | vorinostat -0.114 | citarinostat 0.033 | silmitasertib 0.118 | [5] 0.304 | [6] 0.062

RSBN1L (UniProt Q6PCB5)
inactive: [1] 0.13 | [2] 0.029 | [3] 0.205 | [4] 0.19 | entinostat -0.02 | vorinostat 0.056 | citarinostat -0.035 | silmitasertib 0.26 | [5] 0.198 | [6] -0.09

RTN2 (UniProt O75298)
inactive: [1] -0.037 | [2] 0.104 | [3] -0.051 | [4] 0.07 | entinostat -0.131 | citarinostat 0.011 | silmitasertib 0.004 | [5] -0.031 | [6] -0.048

SAP30 (UniProt O75446)
inactive: [1] 0.043 | [2] 0.032 | [3] 0.044 | [4] 0.287 | entinostat 0.165 | vorinostat 0.307 | silmitasertib 0.106 | [5] 0.047

RUFY3 isoform 3 (UniProt Q7L099)
inactive: [1] -0.032 | [2] -0.022 | [3] -0.05 | [4] -0.014 | entinostat 0.143 | vorinostat 0.071 | citarinostat 0.089 | silmitasertib 0.1 | [6] 0.013

RTN4 isoform 2 (UniProt Q9NQC3)
inactive: [1] -0.078 | [2] -0.021 | [4] -0.033 | entinostat -0.051 | vorinostat 0.016 | [5] 0.026

SCO1 (UniProt O75880)
inactive: [1] -0.052 | [2] 0.107 | [3] -0.023 | [4] -0.037 | entinostat -0.005 | vorinostat 0.04 | citarinostat 0.049 | silmitasertib -0.03 | [5] -0.051 | [6] -0.014

RRP7A (UniProt Q9Y3A4)
inactive: [1] -0.031 | [2] -0.02 | [3] 0.241 | [4] -0.026 | entinostat -0.005 | citarinostat -0.129 | silmitasertib 0.124 | [5] 0.201 | [6] -0.048

SDC3 (UniProt O75056)
inactive: [1] 0.044 | [2] -0.016 | [4] 0.026 | entinostat 0.035 | vorinostat 0.211 | citarinostat 0.354 | [5] 0.09 | [6] 0.174

RUVBL2 (UniProt Q9Y230)
inactive: [1] 0.012 | [2] 0.013 | [3] 0.025 | [4] 0.075 | entinostat -0.055 | vorinostat -0.026 | citarinostat -0.013 | silmitasertib -0.029 | [5] -0.008 | [6] -0.021

RUFY1 (UniProt Q96T51)
inactive: [1] 0.06 | [2] -0.057 | [3] -0.086 | [4] -0.101 | entinostat 0.05 | vorinostat 0.031 | citarinostat 0.032 | silmitasertib 0.11 | [5] 0.038 | [6] -0.037

RSL24D1 (UniProt Q9UHA3)
inactive: [1] 0.063 | [2] 0.112 | [3] 0.377 | [4] 0.197 | entinostat -0.126 | citarinostat -0.085 | silmitasertib 0.274 | [5] 0.248 | [6] -0.339

RTN3 isoform 5 (UniProt O95197)
inactive: [1] 0.134 | [2] -0.021 | [3] 0.047 | [4] 0.022 | entinostat -0.14 | citarinostat -0.212 | silmitasertib -0.15 | [5] 0.018 | [6] -0.072

SC5D (UniProt O75845)
inactive: [1] -0.028 | [2] -0.213 | [3] -0.098 | [4] 0.032 | entinostat 0.003 | vorinostat 0.009 | citarinostat 0.103 | silmitasertib -0.039 | [5] -0.031 | [6] -0.103

Three neighbouring entries out of the list so far, quoted:
SDC3 (UniProt O75056)
inactive: [1] 0.044 | [2] -0.016 | [4] 0.026 | entinostat 0.035 | vorinostat 0.211 | citarinostat 0.354 | [5] 0.09 | [6] 0.174

RUVBL2 (UniProt Q9Y230)
inactive: [1] 0.012 | [2] 0.013 | [3] 0.025 | [4] 0.075 | entinostat -0.055 | vorinostat -0.026 | citarinostat -0.013 | silmitasertib -0.029 | [5] -0.008 | [6] -0.021

RUFY1 (UniProt Q96T51)
inactive: [1] 0.06 | [2] -0.057 | [3] -0.086 | [4] -0.101 | entinostat 0.05 | vorinostat 0.031 | citarinostat 0.032 | silmitasertib 0.11 | [5] 0.038 | [6] -0.037

Next results follow:

SDAD1 (UniProt Q9NVU7)
inactive: [1] 0.009 | [2] 0.104 | [3] -0.111 | entinostat -0.03 | vorinostat 0.228 | citarinostat 0.033 | silmitasertib 0.035 | [5] -0.133 | [6] -0.103

SCLT1 (UniProt Q96NL6)
inactive: [1] -0.007 | [3] -0.057 | [4] -0.077 | entinostat -0.023 | vorinostat 0.064 | silmitasertib -0.01

SEC31A (UniProt O94979)
inactive: [1] -0.078 | [2] -0.024 | [3] -0.022 | [4] -0.099 | entinostat 0.041 | vorinostat 0.003 | citarinostat 0.042 | silmitasertib 0.063 | [5] -0.048 | [6] 0.07

SDCCAG8 (UniProt Q86SQ7)
inactive: [1] 0.108 | [2] 0.004 | [4] -0.185 | entinostat 0.138 | vorinostat 0.233 | citarinostat 0.007 | [6] -0.12

SCAMP2 (UniProt H3BUB6)
inactive: [1] -0.31 | [2] -0.392 | [3] 0.021 | [4] -0.311 | entinostat -0.175 | citarinostat -0.364 | silmitasertib 0.129 | [5] -0.267 | [6] -0.118

RRS1 (UniProt Q15050)
inactive: [1] 0.06 | [2] 0.143 | [3] 0.233 | [4] 0.211 | entinostat -0.087 | vorinostat -0.063 | citarinostat -0.081 | silmitasertib 0.291 | [5] 0.438 | [6] -0.107

S100A10 (UniProt P60903)
inactive: [1] 0.3 | [2] 0.283 | entinostat 0.189 | vorinostat -0.023 | citarinostat 0.333
active: [6] 0.792

SAE1 (UniProt M0R286)
inactive: [1] -0.087 | [3] -0.366 | [4] -0.399 | entinostat -0.171 | silmitasertib 0.504 | [5] -0.065

SEC23A (UniProt Q15436)
inactive: [1] -0.004 | [2] 0.064 | [3] -0.066 | [4] -0.015 | entinostat -0.035 | vorinostat -0.02 | citarinostat -0.044 | silmitasertib 0.011 | [5] 0.024 | [6] -0.097

SCNM1 (UniProt Q9BWG6)
inactive: [1] 0.104 | [2] -0.258 | [3] 0.081 | entinostat -0.085 | vorinostat -0.027 | citarinostat 0.117 | silmitasertib 0.086 | [5] 0.115 | [6] -0.035

S100A6 (UniProt P06703)
inactive: [1] 0.053 | [2] -0.006 | [3] -0.043 | entinostat 0.064 | vorinostat -0.042 | citarinostat 0.022 | silmitasertib 0 | [5] -0.185 | [6] -0.04

SASS6 (UniProt Q6UVJ0)
inactive: [1] -0.008 | [2] 0.052 | [3] -0.447 | [4] -0.154 | entinostat 0.068 | vorinostat 0.098 | silmitasertib 0.228 | [5] 0.042

SARAF (UniProt Q96BY9)
inactive: [1] -0.065 | [2] -0.098 | [4] -0.052 | entinostat 0.077 | vorinostat 0.027 | citarinostat 0.18 | [5] 0.058 | [6] 0.007
